Here are results for 6 molecules from patent US12378320B2, “Methods for treating pancreatitis” (Cold Spring Harbor Laboratory, priority 2018, dated 2025).

In this data set the test system is CA19-9 modified proteins. The data set can be described thus: CA19-9 IP/MS (iTRAQ) of organoid conditioned media after Dox treatment. More on the design: species or system mouse. As to conditions: CA19-9 IP/MS relative abundance; for 17 0H NS19 / 17 8H 5B1 / 17 8H NS19: A217 (genetic negative) organoid conditioned media; for 17 0H NS19 / 20 0H 5B1: 0H (before treatment); for 17 0H NS19 / 17 8H NS19: IP with NS19-9; for 17 0H NS19: reference channel = 1; for 17 8H 5B1 / 17 8H NS19: after 8 hours; for 17 8H 5B1 / 20 0H 5B1: IP with 5B1; for 20 0H 5B1: A220 (C;R^LSL;F) organoid conditioned media.

B1: P17182 (protein, UniProt P17182 1-434, looked up)
chain: MSILRIHAREIFDSRGNPTVEVDLYTAKGLFRAAVPSGASTGIYEALELRDNDKTRFMGKGVSQAVEHINKTIAPALVSKKVNVVEQEKIDKLMIEMDGTENKSKFGANAILGVSLAVCKAGAVEKGVPLYRHIADLAGNPEVILPVPAFNVINGGSHAGNKLAMQEFMILPVGASSFREAMRIGAEVYHNLKNVIKEKYGKDATNVGDEGGFAPNILENKEALELLKTAIAKAGYTDQVVIGMDVAASEFYRSGKYDLDFKSPDDPSRYITPDQLADLYKSFVQNYPVVSIEDPFDQDDWGAWQKFTASAGIQVVGDDLTVTNPKRIAKAASEKSCNCLLLKVNQIGSVTESLQACKLAQSNGWGVMVSHRSGETEDTFIADLVVGLCTGQIKTGAPCRSERLAKYNQILRIEEELGSKAKFAGRSFRNPLAK
modifications: full-length
Turning to B1, the “17 0H NS19” value is reported as 1, the “17 8H 5B1” value came out at 2.195, the “17 8H NS19” value is given as 0.499 and the “20 0H 5B1” value was 1.789.

B2: P05784 (protein, UniProt P05784 1-423, looked up)
chain: MSFTTRSTTFSTNYRSLGSVRTPSQRVRPASSAASVYAGAGGSGSRISVSRSVWGGSVGSAGLAGMGGIQTEKETMQDLNDRLASYLDKVKSLETENRRLESKIREHLEKKGPQGVRDWGHYFKIIEDLRAQIFANSVDNARIVLQIDNARLAADDFRVKYETELAMRQSVESDIHGLRKVVDDTNITRLQLETEIEALKEELLFMKKNHEEEVQGLEAQIASSGLTVEVDAPKSQDLSKIMADIRAQYEALAQKNREELDKYWSQQIEESTTVVTTKSAEIRDAETTLTELRRTLQTLEIDLDSMKNQNINLENSLGDVEARYKAQMEQLNGVLLHLESELAQTRAEGQRQAQEYEALLNIKVKLEAEIATYRRLLEDGEDFSLNDALDSSNSMQTVQKTTTRKIVDGRVVSETNDTRVLRH
modifications: full-length
Turning to B2, the “17 0H NS19” value was 1, the “17 8H 5B1” value is 2.148, the “17 8H NS19” value was found to be 0.888 and the “20 0H 5B1” value is listed as 1.589.

B3: P80318 (protein, UniProt P80318 1-545, looked up)
chain: MMGHRPVLVLSQNTKRESGRKVQSGNINAAKTIADIIRTCLGPKSMMKMLLDPMGGIVMTNDGNAILREIQVQHPAAKSMIEISRTQDEEVGDGTTSVIILAGEMLSVAEHFLEQQMHPTVVISAYRMALDDMISTLKKISTPVDVNNREMMLSIINSSITTKVISRWSSLACNIALDAVKTVQFEENGRKEIDIKKYARVEKIPGGIIEDSCVLRGVMINKDVTHPRMRRYIKNPRIVLLDSSLEYKKGESQTDIEITREEDFTRILQMEEEYIHQLCEDIIQLKPDVVITEKGISDLAQHYLMRANVTAIRRVRKTDNNRIARACGARIVSRPEELREDDVGTGAGLLEIKKIGDEYFTFITDCKDPKACTILLRGASKEILSEVERNLQDAMQVCRNVLLDPQLVPGGGASEMAVAHALTEKSKAMTGVEQWPYRAVAQALEVIPRTLIQNCGASTIRLLTSLRAKHTQESCETWGVNGETGTLVDMKELGIWEPLAVKLQTYKTAVETAVLLLRIDDIVSGHKKKGDDQNRQTGAPDAGQE
modifications: full-length
Turning to B3, the “17 0H NS19” value is recorded as 1, the “17 8H 5B1” value was determined as 5.943, the “17 8H NS19” value was determined as 0.584 and the “20 0H 5B1” value turned out to be 4.809.

B4: P47738 (protein, UniProt P47738 1-519, looked up)
chain: MLRAALTTVRRGPRLSRLLSAAATSAVPAPNHQPEVFCNQIFINNEWHDAVSRKTFPTVNPSTGEVICQVAEGNKEDVDKAVKAARAAFQLGSPWRRMDASDRGRLLYRLADLIERDRTYLAALETLDNGKPYVISYLVDLDMVLKCLRYYAGWADKYHGKTIPIDGDFFSYTRHEPVGVCGQIIPWNFPLLMQAWKLGPALATGNVVVMKVAEQTPLTALYVANLIKEAGFPPGVVNIVPGFGPTAGAAIASHEGVDKVAFTGSTEVGHLIQVAAGSSNLKRVTLELGGKSPNIIMSDADMDWAVEQAHFALFFNQGQCCCAGSRTFVQENVYDEFVERSVARAKSRVVGNPFDSRTEQGPQVDETQFKKILGYIKSGQQEGAKLLCGGGAAADRGYFIQPTVFGDVKDGMTIAKEEIFGPVMQILKFKTIEEVVGRANDSKYGLAAAVFTKDLDKANYLSQALQAGTVWINCYDVFGAQSPFGGYKMSGSGRELGEYGLQAYTEVKTVTVKVPQKNS
modifications: full-length
On to B4, for which the “17 0H NS19” value worked out at 1, the “17 8H 5B1” value was determined as 2.783, the “17 8H NS19” value came to 0.665 and the “20 0H 5B1” value is given as 2.399.

B5: Q8BSL7 (protein, UniProt Q8BSL7 1-181, looked up)
chain: MGNVFEKLFKSLFGKKEMRILMVGLDAAGKTTILYKLKLGEIVTTIPTIGFNVETVEYKNISFTVWDVGGQDKIRPLWRHYFQNTQGLIFVVDSNDRERVNEAREELTRMLAEDELRDAVLLVFVNKQDLPNAMNAAEITDKLGLHSLRQRNWYIQATCATSGDGLYEGLDWLSNQLKNQK
modifications: full-length
For the molecule B5, the “17 0H NS19” value stood at 1, the “17 8H 5B1” value came to 1.57, the “17 8H NS19” value came out at 0.495 and the “20 0H 5B1” value is 1.376.

B6: P55937 (protein, UniProt P55937 1-1487, looked up)
chain: MDGASAKQDGLWESKSSSDVSSCPEASLETVGSLARLPDQQDTAQDASVEVNRGFKEEGSPDRSSQVAICQNGQIPDLQLSLDPTTSPVGPDASTGVDGFHDNLRNSQGTSAEGSVRKEALQSLRLSLPMQETQLCSTASSLPLEKEEQVRLQARKRLEEQLMQYRVKRHRERSSQPATKMKLFSTLDPELMLNPENLPRASTVAVTKEYSFLRTSVPRGPKVGSLGLLAHSKEKKNSKSSKIRSLADYRTEDPSDSGGLGSTADAVGSSLKQSRSSTSVVSEVSPSSETDNRVESASMTGDSVSEADGNESDSSSHSSLSARGACGVLGNVGMPGTAYMVDGQEISAEALGQFPSIKDVLQAAAAQHQDQNQEANGEVRSRRDSICSSVSMESSLAEPQDELLQILKDKRRLEGQVEALSLEASQALQEKAELQAQLAALSTRLQAQVEHSHSSQQKQDSLSSEVDTLKQSCWDLGRAMTDLQSMLEAKNASLASSNNDLQVAEEQYQRLMAKVEDMQRNILSKDNTVHDLRQQMTALQSQLQQVQLERTTLTSKLQASQAEITSLQHARQWYQQQLTLAQEARVRLQGEMAHIQVGQMTQAGLLEHLKLENVSLSHQLTETQHRSIKEKERIAVQLQSIEADMLDQEAAFVQIREAKTMVEEDLQRRLEEFEGEREQLQKVADAAASLEQQLEQVKLTLFQRDQQLAALQQEHLDVIKQLTSTQEALQAKGQSLDDLHTRYDELQARLEELQREADSREDAIHFLQNEKIVLEVALQSAKSDKEELDRGARRLEEDTEETSGLLEQLRQDLAVKSNQVEHLQQETATLRKQMQKVKEQFVQQKVMVEAYRRDATSKDQLINELKATKKRLDSEMKELRQELIKLQGEKKTVEVEHSRLQKDMSLVHQQMAELEGHLQSVQKERDEMEIHLQSLKFDKEQMIALTEANETLKKQIEELQQEAKKAITEQKQKMKRLGSDLTSAQKEMKTKHKAYENAVSILSRRLQEALASKEATDAELNQLRAQSTGGSSDPVLHEKIRALEVELQNVGQSKILLEKELQEVITMTSQELEESREKVLELEDELQESRGFRRKIKRLEESNKKLALELEHERGKLTGLGQSNAALREHNSILETALAKREADLVQLNLQVQAVLQRKEEEDRQMKQLVQALQVSLEKEKMEVNSLKEQMAAARIEAGHNRRHFKAATLELSEVKKELQAKEHLVQTLQAEVDELQIQDGKHSQEIAQFQTELAEARTQLQLLQKKLDEQMSQQPTGSQEMEDLKWELDQKEREIQSLKQQLDLTEQQGKKELEGTQQTLQTIKSELEMVQEDLSETQKDKFMLQAKVSELKNNMKTLLQQNQQLKLDLRRGAAKKKEPKGESNSSSPATPIKIPDCPVPASLLEELLRPPPAVSKEPLKNLNNCLQQLKQEMDSLQRQMEEHTITVHESLSSWAQVEAAPAEHAHPRGDTKLHNQNSVPRDGLGQ
modifications: full-length
Turning to B6, the “17 0H NS19” value stood at 1, the “17 8H 5B1” value turned out to be 2.198, the “17 8H NS19” value was 0.697 and the “20 0H 5B1” value is on record as 1.942.
